Laboratory results: PubChem BioAssay AID1347423 (Functional Genomics Laboratory (NCATS/FGL), 2020)
Screen size: about 52,000 sequences; about 210 (0.4%) were called active.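 The calls were made as follows: active = gene whose silencing raises cell survival under the drug, median off-target-corrected z-score across its silencing RNAs 2 or more; inactive = the rest.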 This is one part of the list.

experiment: Resistance to Poly (ADP-Ribose) Polymerase inhibitor: Gene Identification via Genome-wide siRNA Screen; conditions: mouse BRCA2 R2336H ES cells, olaparib, CellTiter-Glo viability; stronger effect = higher value
Outline: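 Genome-wide siRNA screen (3 siRNAs/gene, 20 nM) in mouse ES cells carrying hypomorphic BRCA2 R2336H; olaparib 500 nM added 48 h post-transfection, CellTiter-Glo viability 72 h later. Normalized to plate-median negative control; MAD z-scores, gene median, seed-adjusted.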

| Sequence | z-score |
| --- | --- |
| GGAGAUCAGCAGUUCAUUUTT against Csprs | inactive: -0.615 |
| GGAAUCAGCAAUGGACCCUTT against Parn | inactive: -1.05 |
| GCUUCUUGAUCCAACUGGATT against Zfyve27 | inactive: 0.979 |
| GGUCAUGACAUCAUUGGCGTT against Kcng4 | inactive: 0.719 |
| CGAAGGUCUGUUCGAGAACTT against BC023055 | inactive: -0.647 |
| GGCACUGAAUUCUGUUGCUTT against C730048C13Rik | inactive: -0.12 |
| GCAUCAAGGCAACAAAGAUTT against 2810022L02Rik | inactive: -1.04 |
| GGUACAGGUUGAUGCACUUTT against DXImx50e | inactive: -1.07 |
| CGCAGGACGAUUAUGACGUTT against Pcdhb12 | inactive: 1.09 |
| GGACCAGAAACCGUGAUAATT against Immp2l | inactive: 1.56 |
| GACCUGAAUAAAGACUGUCTT against Cort | inactive: 0.702 |
| CCUUAUAAUUGACACUGAUTT against 4930584N22Rik | inactive: 1.11 |
| CGGAGUGAAACUACUCAUUTT against Ckb | inactive: 0.411 |
| GCUUACAGAUCAACUGAAGTT against Chst9 | inactive: -0.614 |
| GGGCAAUUCCAUGAAGCUGTT against Scn3b | inactive: 2.09 |
| GCAAUGGACCCAACUCAAGTT against 2810032G03Rik | inactive: 0.773 |
| GGGCAAACAUUAUAAAUUGTT against Prlpc2 | inactive: 1.64 |
| GGAGAACACCAUCAGGUUUTT against Tnfrsf14 | inactive: -1.81 |
| GCUCAUUCGUCCUCACAGUTT against Olfr312 | inactive: 0.408 |
| GCGAGUGCUAACAUGAAAGTT against Sara1 | inactive: -0.143 |
| GGAAACAAUACACCAAAUGTT against B630005N14Rik | inactive: -0.0892 |
| CCAAGUUACAGGAACAAGUTT against Olfr1504 | inactive: -0.887 |
| GCUGAUAGACUCACAGAGGTT against Midn | inactive: 0.755 |
| GGGAAUCUGGAGUGUCUGATT against Uaca | inactive: 1.13 |
| GCACUGAUGACGUGCAGAUTT against Rps5 | inactive: -3.23 |
| GGCACAAGCAGGAGAUAAATT against Serpinb2 | inactive: -0.628 |
| GGUAGGACUAACAAUAAAATT against Gpr4 | inactive: 0.144 |

| Sequence | z-score |
| --- | --- |
| GAACAGCAGAAUCUCGGCUTT against Cacng6 | inactive: 2.9 |
| CCAUCAUUUAUGAAGACCCTT against Wdr68 | inactive: -0.231 |
| GGCUCCUACCAAUCUCACUTT against Calcr | inactive: 0.374 |
| GGCCUGAAGCAGCUUAUCUTT against Chad | inactive: 0.508 |
| CCAUAACGUAAGGCAUAUATT against Ghsr | inactive: -1.15 |
| UUGCCUCUUCCUACGCCUUTT against Lass1 | inactive: -2.37 |
| CCCUUUAGAGGAAGUGAUATT against Gatm | inactive: -0.34 |
| GGCAGAAGUGGAAAAACAATT against 4930403O06Rik | inactive: -1.56 |
| GGUUUGGAGGGACGCAAUATT against 2900005J15Rik | inactive: -1.49 |
| CCAUCUAUCAACUUCUACATT against Sat1 | inactive: 1.09 |
| GCCACAAUGCUAGAAGAGATT against Apex2 | inactive: -0.349 |
| GGACCUAGACGAUGUCAUGTT against Lrrc4b | inactive: 1.9 |
| GGAAGAAGCCUUUCAGCAUTT against Cenpa | inactive: -0.274 |
| AGUGCGACAAGGAGGUGUATT against Crip1 | inactive: -0.837 |
| GGAAGAAUUACAAAGGAUATT against Cnot4 | inactive: 0.658 |
| GGAUCUUGGGUUGAUAUUUTT against Acsl4 | inactive: -1.88 |
| CGUUCUACAACAAAUGGCUTT against Slc35c2 | inactive: 0.549 |
| GCCUUUACCCAAAUUAUCATT against Defb4 | inactive: 0.42 |
| GGCAGGUGUGGCUUUCUUCTT against Gpsm1 | inactive: 1.01 |
| GGAACUUAUCCUUCAUGGATT against Olfr714 | inactive: 0.467 |
| GAAACUAUGGCUGAAAAUGTT against Klk6 | inactive: -0.0594 |
| GCCUUACAAUUUGUUCUACTT against Dsc1 | inactive: 1.9 |
| GCCUUUCUCAUUAGUCUCUTT against V1rb9 | inactive: 1.16 |
| GGUCAAAACCAUCUACCGCTT against Rab3a | inactive: 0.000379 |
| GGUAACUCCAUACUAUAAUTT against Pcdhb4 | inactive: -0.186 |
| GGAGGAUUAGAACGGACCUTT against Nol5a | inactive: -0.363 |
| GCCAUUGGUACCAUAACAUTT against Tekt3 | inactive: -0.64 |

Pulled one by one from the list above, 2 records:

| Sequence | z-score |
| --- | --- |
| GGCCUGAAGCAGCUUAUCUTT against Chad | inactive: 0.508 |
| GGAUCUUGGGUUGAUAUUUTT against Acsl4 | inactive: -1.88 |

Following part

| Sequence | z-score |
| --- | --- |
| GGCCGUCACUGCCAAUAGUTT against D330014H01Rik | inactive: 0.787 |
| GCUACUUAAAUACAUCCGCTT against Pdpk1 | inactive: -0.00261 |
| GGAGCCUUUACCAUUGACUTT against Osmr | inactive: -0.827 |
| GGAAAAGAAGUUUAAACGGTT against Svs6 | inactive: 0.979 |
| CCCGAUUAUCUAGUGAUACTT against Sbk | inactive: -0.0364 |
| GGAUGUCAUCGAGGAAUACTT against Rps12 | inactive: -2.66 |
| GGAUGGCAUAGUUCUUGGATT against Psmb7 | inactive: -3.43 |
| GGAAUCCUUUUCUUUCUAATT against Slc13a1 | inactive: -1.87 |
| GGAAAACUUUAGCUACAAATT against 8430415E04Rik | inactive: 0.821 |
| GGAGCUAAGACAGUUUGGATT against BC022133 | inactive: -1.16 |
| GGGCUGACUACCUUGUCAUTT against Mad2l2 | inactive: -0.798 |
| GGUUCUUAUCACUUGCUGUTT against Arf6 | inactive: 2.83 |
| CCAAAGAGCGCAUGGCUCATT against Epn2 | inactive: 0.235 |
| GGUCAUCUCAGUACUACAATT against Dgat2 | inactive: -1.18 |
| GCUCUGUCUUCAGGUCAUUTT against Olfr1040 | inactive: -1.7 |
| CGAGGUAAACAGUUUCGUUTT against BC051142 | inactive: 0.568 |
| GAAGAGCGGGUGUUGCUAATT against E130113K08Rik | inactive: -1.65 |
| CCUCCAGUACCAACAUUAGTT against Olfr299 | inactive: 0.407 |
| GGCAAGAAACAGGAGAAGATT against Ptn | inactive: -0.789 |
| GGAUUCUCUAAUAAAGCGUTT against Pof1b | inactive: 0.894 |
| GGUUUUAGAAGGGAAACAUTT against Ppp2r2c | inactive: -0.761 |
| GGUUAAGCAGAAAUUAAGATT against D3Ertd300e | inactive: -0.0197 |
| GGAUCAAGCAGAAAGGAGATT against Otc | inactive: 0.0892 |
| GGUAGUGACGAAAAAUAACTT against Pigt | inactive: 1 |
| GCUGAGGCAAUUUCAACUUTT against Ctla4 | inactive: 0.608 |
| GGAGGACUUUGGAUUUAAGTT against Prim1 | inactive: 1.09 |
| GGCAAGUCCAUGGUCAUGUTT against 1500002O20Rik | inactive: -0.871 |

| Sequence | z-score |
| --- | --- |
| UUAGCCGAAAGGGCUUAACTT against Olfr1032 | inactive: 0.496 |
| GCUUGUGUUUUAGAGCCGCTT against Mat1a | inactive: -0.355 |
| GAAUGUAUGGUGAUCAAAGTT against Pip | inactive: 1.17 |
| GCUUGUUGCCUAGGACCUATT against 2010003J03Rik | inactive: -1.48 |
| GGACCUGUUGAUAUUGGCCTT against Atp5j | inactive: 0.146 |
| GCUAAUAUAGAGUAUCUGUTT against D230005D02Rik | inactive: 0.758 |
| GGAGAUCGACCUGUCUAUGTT against D030051D21 | inactive: -1.44 |
| GGUCCUAAAUGCUCAGAAGTT against Rnf167 | inactive: 1.03 |
| GGAUUCGGAAAUAUUGCCATT against Fgb | inactive: -2.03 |
| GGAGGUACCACAAAAGGCATT against Kif2c | inactive: -0.582 |
| GCAUGACCUCAGGUUUUCUTT against Fndc6 | inactive: 0.775 |
| GGUGAAACUGAGAAUCAUGTT against Mcpt4 | inactive: 0.517 |
| GGCCUUUCUUUUGUAAUUUTT against Zfp57 | inactive: 0.562 |
| GCAACCGAAGUAACAUAUATT against RbmY1a1 | inactive: -1.77 |
| GAAUCGGAGCAGUGUGUCATT against Tff2 | inactive: -1.41 |
| GGGAUGGACUUAUACCUGUTT against V1rh12 | inactive: 0.851 |
| CCCUACGAAGUACCAACUUTT against Il18bp | inactive: -2.08 |
| GCAAUAAGGUGAAGUCAGATT against Mbd2 | inactive: 1.29 |
| GGCUUUUGUCAAACAGCAUTT against Ins1 | inactive: -0.285 |
| GGAACUGGGUUCAUCCACATT against Snrpb2 | inactive: -0.975 |
| GCUAGAGUCCAUAAACAAUTT against Olfr1148 | inactive: -0.417 |
| CCUUAUAACUCUUACGUUUTT against Mak3 | inactive: -0.589 |
| GGAUGGACUUCUGUAUCACTT against Cdh17 | inactive: 1.92 |
| GGCCAAGGAGAGCAUUCGATT against Vps4a | inactive: 1.19 |

Individual results from the entries so far:
Under z-score, GCAUGACCUCAGGUUUUCUTT against Fndc6 has the entry inactive: 0.775
Under z-score, GCUAAUAUAGAGUAUCUGUTT against D230005D02Rik has the entry inactive: 0.758
